For 25 sequences, self-aminoacylation results are on record in the supplement of paper PMC9233669.

This sample is rich in variants without activity.

Series [1] has as its system biotinyl-Phe-oxazolone. As to the kind of experiment: self-aminoacylation, catalytic enhancement (BFO) (fold over background); higher = more active; k-Seq, kA / k0A0; sequences stand for … in GGGAAUGGAUCCACAUCUACGAAUUC…UUCACUGCAGACUUGACGAAGCUG
The gist of the method:
(§1)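 The uncatalyzed rate is the low-activity peak of a bimodal Gaussian fit, and catalytic enhancement is median kA divided by it. The kA values came from pseudo-first-order fits, with 1000 bootstraps, of per-sequence fraction reacted measured by streptavidin capture, triplicate qPCR and Illumina sequencing. Mutagenized RNA pools with a 21-nt variable region (0.43 μM) were reacted with each biotinyl-aminoacyl-oxazolone at 2–1250 μM in 50 μL HEPES/NaCl/KCl/MgCl2/CaCl2 buffer with 5% acetonitrile, pH 6.9–7.0, for 90 minutes at room temperature.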

In series [2] the test system is biotinyl-Ile-oxazolone. As to the kind of experiment: self-aminoacylation, catalytic enhancement (BIO) (fold over background); higher = more active; k-Seq, kA / k0A0; sequences stand for … in GGGAAUGGAUCCACAUCUACGAAUUC…UUCACUGCAGACUUGACGAAGCUG
The method, boiled down: as §1

Series [3] relates to biotinyl-Met-oxazolone. As to the kind of experiment: self-aminoacylation, catalytic enhancement (BMO) (fold over background); higher = more active; k-Seq, kA / k0A0; sequences stand for … in GGGAAUGGAUCCACAUCUACGAAUUC…UUCACUGCAGACUUGACGAAGCUG
The method, boiled down:
as §1

In series [4] the test system is biotinyl-Trp-oxazolone. As to the kind of experiment: self-aminoacylation, catalytic enhancement (BWO) (fold over background); higher = more active; k-Seq, kA / k0A0; sequences stand for … in GGGAAUGGAUCCACAUCUACGAAUUC…UUCACUGCAGACUUGACGAAGCUG
The gist of the method: as §1

In series [5] the test system is biotinyl-Leu-oxazolone. Put plainly: self-aminoacylation, catalytic enhancement (BLO) (fold over background); higher = more active; k-Seq, kA / k0A0; sequences stand for … in GGGAAUGGAUCCACAUCUACGAAUUC…UUCACUGCAGACUUGACGAAGCUG
The gist of the method:
as §1

For series [6], the system named is biotinyl-Val-oxazolone. Put plainly: self-aminoacylation, catalytic enhancement (BVO) (fold over background); higher = more active; k-Seq, kA / k0A0; sequences stand for … in GGGAAUGGAUCCACAUCUACGAAUUC…UUCACUGCAGACUUGACGAAGCUG
The gist of the method:
as §1

In the case of “CCACAGUUCAAGCAAUCUGUC [Fam1B.1 aminoacylation ribozyme variant]”, the self-aminoacylation came out at 0.586 in series [1]; 0.46 in series [2]; 0.305 in series [3]; 0.346 in series [4]; 0.371 in series [5]; 0.54 in series [6].
On to “CCACACUUCAAGCACUCGGUA [Fam1B.1 aminoacylation ribozyme variant]”, for which the self-aminoacylation in series [1] is 0.635; in series [2], 1.29; in series [3], 1.31; in series [4], 1.56; in series [5] it was 1.51; in series [6], 1.53.
In the case of “CCACAAUUCACGCAAUCGGUC [Fam1B.1 aminoacylation ribozyme variant]”, the self-aminoacylation stood at 1.95 in series [1]; 1.8 in series [2]; 1.67 in series [3]; 1.57 in series [4]; 1.78 in series [5]; 2.05 in series [6].
Take “AUGACCCUGGUCAUCGACUGA [Fam2.1 aminoacylation ribozyme variant]”: the self-aminoacylation in series [1] was 0.57; in series [2] it was 0.662; in series [3], 0.657; in series [4], 0.76; in series [5], 0.763; in series [6], 0.798.
For “CCACACUUCAAGCAAUGGGGC [Fam1B.1 aminoacylation ribozyme variant]”, the self-aminoacylation in series [1] came out at 1.33; in series [2], 1.43; in series [3], 1.57; in series [4], 1.23; in series [5], 1.19; in series [6], 1.57.
Turning to “CCACACUUCACGCAAUGGGUC [Fam1B.1 aminoacylation ribozyme variant]”, the self-aminoacylation in series [1] came to 0.831; in series [2], 1.05; in series [3], 0.99; in series [4], 0.782; in series [5], 1.18; in series [6], 1.58.
Regarding “CCACAGUUCCAGCAAUCGGUC [Fam1B.1 aminoacylation ribozyme variant]”, the self-aminoacylation in series [1] was determined as 1.17; in series [2] it was 1.61; in series [3] it was 1.19; in series [4], 0.743; in series [5], 1.71; in series [6] it was 1.56.
For “CUUCUUCAAACAAUGGGUCUG [Fam1A.1 aminoacylation ribozyme variant]”, the self-aminoacylation in series [1] amounted to 1.02; in series [2], 1.16; in series [3], 1.01; in series [4] it was 0.646; in series [5], 0.979; in series [6], 1.01.
For the sequence “CUUCACCUAGGUCAUAGGGUG [Fam2.2 aminoacylation ribozyme variant]”, the self-aminoacylation came to 1.66 in series [1]; 1.35 in series [2]; 1.39 in series [3]; 1.79 in series [4]; 1.6 in series [5]; 1.29 in series [6].
Turning to “AAGUUCGCUAAUAGACGCAAG [Fam3.1 aminoacylation ribozyme variant]”, the self-aminoacylation in series [1] came out at 0.983; in series [2], 0.737; in series [3], 0.557; in series [4], 0.66; in series [5] it was 0.714; in series [6] it was 0.602.
Regarding “UCACACUACAAGCAAUCGGUC [Fam1B.1 aminoacylation ribozyme variant]”, the self-aminoacylation in series [1] was 1.22; in series [2], 0.867; in series [3] it was 0.685; in series [4] it was 0.924; in series [5], 0.846; in series [6], 0.883.
Take “AUUACCCUGGUCCUCGACUGA [Fam2.1 aminoacylation ribozyme variant]”: the self-aminoacylation was found to be 0.483 in series [1]; 0.806 in series [2]; 0.69 in series [3]; 0.868 in series [4]; 0.695 in series [5]; 0.845 in series [6].
Turning to “CCACACUUCAAGCACUAGGUC [Fam1B.1 aminoacylation ribozyme variant]”, the self-aminoacylation in series [1] turned out to be 0.813; in series [2], 0.524; in series [3], 0.413; in series [4] it was 0.669; in series [5], 0.427; in series [6], 0.538.
In the case of “CCACACUGCAAGCAAUCGUUC [Fam1B.1 aminoacylation ribozyme variant]”, the self-aminoacylation in series [1] turned out to be 0.774; in series [2], 0.949; in series [3], 0.893; in series [4], 0.711; in series [5], 0.703; in series [6], 0.996.
With “CUACUUCAAACAAUCUGUCCG [Fam1A.1 aminoacylation ribozyme variant]”, the self-aminoacylation turned out to be 0.923 in series [1]; 0.891 in series [2]; 0.8 in series [3]; 0.656 in series [4]; 0.729 in series [5]; 0.814 in series [6].
Consider “AAAUUUGUUAAUAGUCGCAAG [Fam3.1 aminoacylation ribozyme variant]”, for which the self-aminoacylation is 2.69 in series [1]; 2.11 in series [2]; 2.04 in series [3]; 1.76 in series [4]; 1.99 in series [5]; 1.59 in series [6].
Take “CCACACUUGAAGCAAUCUGUC [Fam1B.1 aminoacylation ribozyme variant]”: the self-aminoacylation in series [1] was found to be 0.447; in series [2] it was 0.442; in series [3] it was 0.434; in series [4], 0.36; in series [5] it was 0.288; in series [6], 0.406.
On to “CCACACCUCAAACAAUCGGUC [Fam1B.1 aminoacylation ribozyme variant]”, for which the self-aminoacylation in series [1] was 7.05; in series [2] it was 1.24; in series [3] it was 1.04; in series [4] it was 4.47; in series [5], 1.29; in series [6], 1.13.
On to “AUUACCCUGGUUAUCGAGUCA [Fam2.1 aminoacylation ribozyme variant]”, for which the self-aminoacylation in series [1] stood at 0.691; in series [2], 1.04; in series [3], 0.782; in series [4] it was 0.571; in series [5] it was 0.982; in series [6], 1.11.
For “CUACUUCCAACAAUCAGUCUG [Fam1A.1 aminoacylation ribozyme variant]”, the self-aminoacylation in series [1] is 1.06; in series [2], 0.742; in series [3], 0.636; in series [4], 0.705; in series [5], 0.703; in series [6], 0.746.
As to “CUACUUCAUACAAUCGGUCUC [Fam1A.1 aminoacylation ribozyme variant]”, the self-aminoacylation was found to be 0.696 in series [1]; 0.839 in series [2]; 0.72 in series [3]; 0.426 in series [4]; 0.636 in series [5]; 0.789 in series [6].
Regarding “CCACACUUCAAGUAAACGGUC [Fam1B.1 aminoacylation ribozyme variant]”, the self-aminoacylation in series [1] stood at 0.705; in series [2], 0.6; in series [3], 0.584; in series [4] it was 0.404; in series [5] it was 0.524; in series [6] it was 0.707.
With “CCACACUUCAAGGAAUCGGCC [Fam1B.1 aminoacylation ribozyme variant]”, the self-aminoacylation in series [1] came out at 1.42; in series [2], 1.89; in series [3], 2.08; in series [4], 4.4; in series [5] it was 2.39; in series [6] it was 2.4.
Turning to “CCACACUUCAAGCAAACGUUC [Fam1B.1 aminoacylation ribozyme variant]”, the self-aminoacylation amounted to 0.768 in series [1]; 0.717 in series [2]; 0.613 in series [3]; 0.573 in series [4]; 0.546 in series [5]; 0.854 in series [6].
Take “CUGCUUCAAACAAACGGUCUG [Fam1A.1 aminoacylation ribozyme variant]”: the self-aminoacylation in series [1] was determined as 0.645; in series [2] it was 0.647; in series [3], 0.695; in series [4], 0.373; in series [5] it was 0.566; in series [6], 0.709.
